Most values lie at the floor of the assay. Slopes are relative: functional sequences can read slightly below zero.
test system: Saccharomyces cerevisiae PS128 hsf1 delta, HSF1(1-493) fusion; assay: growth estimate (transactivation domain function in HSF1 fusion, heat-shock survival) (a.u. (slope of normalised read count over time)); higher = stronger growth at 37°C, i.e. more transactivation activity; settings: library: random library

Substance	growth estimate
WLGVE	< -0.25
WLH	< -0.25
WLKVLATTRRVVNRTSDVKS	< -0.25
WLLVAWLSGGYTIMETTRHS	< -0.25
WLRCLGHRQLDDRGNHLYPS	-0.245
WLRENQAVVSAWKTSGAGVE	< -0.25
WLSRKQKPQGPSAVASSPRI	< -0.25
WLTPAHE	< -0.25
WLWP	-0.106
WMRRRM	< -0.25
WNARRILIIVMPRTTISTPT	< -0.25
WNCGRFIRFGARVAVVRAR	< -0.25
WNFPDRCYNPPKPI	< -0.25
WNISVECLSIARMVRHARTA	< -0.25
WNLY	-0.246
WNTSEYSPEQVRKDPPRGVM	< -0.25
WNVICSGVGFFERTSGSPVK	< -0.25
WPALMAC	< -0.25
WPEPFMKLLVVSR	< -0.25
WPFFGFLIRLVIPTEVAKRG	< -0.25
WPGRIRSNYVRYHLFLWSGG	< -0.25
WPKLCGRTG	< -0.25
WPMA	< -0.25
WPSINVGADLCGAMPV	< -0.25
WPTYGSSGMEHISASRCNFR	< -0.25

As entered above.
In growth estimate, WPKLCGRTG reads < -0.25
In growth estimate, WLLVAWLSGGYTIMETTRHS reads < -0.25
In growth estimate, WLKVLATTRRVVNRTSDVKS reads < -0.25
In growth estimate, WNISVECLSIARMVRHARTA reads < -0.25
In growth estimate, WLWP reads -0.106

Further records

Substance	growth estimate
WPVFWHDREP	< -0.25
WPVIIEKERVHVGFRRICRA	< -0.25
WPWRGPNVLMPRTTA	< -0.25
WQAFTNKIQACGLCPIAVRF	< -0.25
WQATRT	< -0.25
WQFQWNDIWQ	< -0.25
WQGELSRQGSLRVRCLACLA	< -0.25
WQPAAAPLRAQGSKRSWVMA	< -0.25
WQPRCSGT	< -0.25
WQQHRADTNIPS	< -0.25
WQQPVDASPEEEESIPWSDR	< -0.25
WQVAKLVS	< -0.25
WQVTSAKYSMQRSG	< -0.25
WRCAHGYHWCAGCKSPFTGR	< -0.25
WRCASFRVNHARTSLGEFRE	< -0.25
WRDYDGGTLELCVLNYACWP	< -0.25
WREVYEVSQVLDLWSSGLTP	-0.173
WRICTCVRIHQTIDMVLDAP	< -0.25
WRINAFRDPAQDYLLRVGAL	< -0.25
WRMAELGGSPDRLVTCSDYS	-0.228
WRMGSVPISICPFPGLSTPS	< -0.25
WRNLGNV	< -0.25
WRNNCGAVALNRSYEHNYEV	< -0.25
WRQTARVRT	< -0.25
WRRASCSVQAMGSGLL	0.442

Substance	growth estimate
WRSHWGKGTSHWGRITSIFL	< -0.25
WRSSRKIYGETHLLLT	< -0.25
WRSTFNDTHLWIFCVRLAWP	< -0.25
WRVLVIGLGWSGLR	< -0.25
WRVVESPSTVSDCGYILSPP	< -0.25
WRWKIQIAWGIDSMQSVCRS	< -0.25
WSAQS	< -0.25
WSCRR	< -0.25
WSEGTHSKDPGGSMIAARAT	< -0.25
WSHQLL	< -0.25
WSIRS	< -0.25
WSKSLNSNEPPIGLGLWP	< -0.25
WSLRDTGTLFPPRGIPVRGG	< -0.25
WSREREAGVIVFGQEVW	< -0.25
WSRGSGPAAIVLHGLERSHL	< -0.25
WSRHTVVVENTPGVDAMCSQ	< -0.25
WSVGK	< -0.25
WSVKVTALDERCWGTSSAT	< -0.25
WSVRQRLSVLRVSPKDLMG	< -0.25
WSYLIFAFHRRWIPQYIT	< -0.25
WTAQFGEFEI	< -0.25
WTDFNISLCRLQKRYPRVLT	< -0.25
WTERWSSDLDSLSV	< -0.25
WTFFLESTVSSGR	< -0.25
WTGRSLVFWVGHSGVQASES	< -0.25

Substance	growth estimate
WTHTKTTHYRLHPLGLDCTE	< -0.25
WTQCG	< -0.25
WTRKWTICTIRIAIEVKEPV	< -0.25
WTSGCI	< -0.25
WVAGSDPDSYQGGGCYASVG	< -0.25
WVCIAAHHHDQVAGAHWCTS	< -0.25
WVDRAM	< -0.25
WVDSSLRVIATIVRAYLITS	< -0.25
WVGRRQGLSTRGPSKFSPAG	< -0.25
WVGVSAGLVCA	< -0.25
WVIDVASHWNARAICLRRDP	< -0.25
WVL	< -0.25
WVLRAFIRHPREVTKGRPPV	< -0.25
WVLTGQMTCNIGWESTTMRV	< -0.25
WVLVTHEGSKS	< -0.25
WVPPKSAYKNLRDDHELVPA	< -0.25
WVQ	< -0.25
WVRGGGS	< -0.25
WVRLPPIGPGVCPLVTIRGL	< -0.25
WVSNVRP	< -0.25
WVV	< -0.25
WVVA	< -0.25
WVVASGSPQIHEKTGIAGRQ	< -0.25
WVVDLKADIPSSNVPSSVGP	< -0.25
WVWLSRCDSA	-0.24

Substance	growth estimate
WVYVGQSAVPVKWTHALGGE	< -0.25
WVYWVRKFGHSRAYAYLQFW	< -0.25
WWADS	-0.237
WWAESRST	< -0.25
WWDLVPGLSIVVVGIRKTHR	< -0.25
WWTGVRGWCRM	< -0.25
WWTNNKRPMTQLFLVESSLS	< -0.25
WWVIESDNRAL	-0.228
WYCRCA	< -0.25
WYCSVSIPAEV	< -0.25
WYIVVCISVLLHPNCFARHR	< -0.25
WYRVAQQTFGLNLFLVKLSQ	< -0.25
YAAE	< -0.25
YAEGTGRLDGRANSYNVVYQ	< -0.25
YAFRD	< -0.25
YAGDLFPFLERGIGVTFASL	< -0.25
YAGRLAPAYPIINTVPRGQA	-0.145
YAHISGEFSYRWNASCAW	< -0.25
YALA	< -0.25
YALFVRPQCGCRPL	< -0.25
YALLSPSVRVWKKLRLLTVL	< -0.25
YANDVRR	< -0.25
YANHGYPYRDYELFSISAHR	< -0.25
YASSKVFLRKAAYLWLKLRG	< -0.25
YATGGLGADNTLLSCQELDP	< -0.25

Substance	growth estimate
YATTGVG	< -0.25
YAVDHLRLLMCKSMREDVVR	< -0.25
YAVSVLNTCVNGVIHVRLES	< -0.25
YAWAW	< -0.25
YAWTAYEEQDRH	< -0.25
YCCLSKLARIRSSWMDRGLR	< -0.25
YCNDWGETHLNIRYWLGNQP	-0.147
YCPRI	-0.17
YCSARSG	< -0.25
YCSCFLLMLKRATAGCA	< -0.25
YCTGDRGSCPRLAAHRVVPL	< -0.25
YCTGPIYASLVFWLLGQPET	< -0.25
YCTNIVIVQGSRRVALSLLL	< -0.25
YCVHGISPAINRQSQWTRHV	-0.243
YCVITHRSVVLAHSTGEKQP	< -0.25
YCWPHPTA	< -0.25
YDDRHKDESSTPTLTVRTRC	< -0.25
YDDSEYGVVRIYVVTGWEAA	< -0.25
YDGRGHGGIVQDRL	< -0.25
YDKAVCRIGGRWCQWGPPYQ	< -0.25
YDLRTWGTASDMAMANLCTQ	< -0.25
YDNAHSEGDG	< -0.25
YDPRLVSYVQPRV	< -0.25
YDQDSFATLQIMPSYGIYPK	-0.111
YDSDSARIGQ	-0.246

Substance	growth estimate
YDSRSGSFSAPPLRRRTVTG	< -0.25
YDVGKWPLRERYTVGGGPPI	< -0.25
YDVNFTAFIALGRIE	-0.228
YEEEYYLLLSQRLASYRKPD	< -0.25
YEEGCCRIPRRREFRVFRCR	< -0.25
YEHSAGSPAERQQRPVLPTA	< -0.25
YELCRLFARNSDRHECHWRF	< -0.25
YELLKCVKRYQGSREMGALS	< -0.25
YENIGIQDN	-0.231
YETPPRETDCMLVNLSVLFV	< -0.25
YEVLNS	< -0.25
YFC	< -0.25
YFDLRGALIHARFRFRGVFA	< -0.25
YFHTL	< -0.25
YFRF	-0.0679
YFRFGGRNPCGIHSCSRNRS	< -0.25
YFS	< -0.25
YFTSSPNEITLPLLSLSARV	< -0.25
YFTWYRIRDDDEDQ	< -0.25
YGATLRDLEFPGRRATVYCV	< -0.25
YGEGMSPPGGDRVLRGKIAS	< -0.25
YGESPRKGR	< -0.25
YGEVTSVIYDSEVGNDVREH	< -0.25
YGFRQGTRTLVLATSRSVSE	< -0.25
YGGLTAHVRIVDGNRGNLPI	< -0.25

Fetched one by one from the entries so far (4):
Substance	growth estimate
WVLRAFIRHPREVTKGRPPV	< -0.25
WVAGSDPDSYQGGGCYASVG	< -0.25
YENIGIQDN	-0.231
WRWKIQIAWGIDSMQSVCRS	< -0.25

More entries

Substance	growth estimate
YGGPLMRIGDRLAFLF	< -0.25
YGHVL	< -0.25
YGISLDIYSGHGLC	< -0.25
YGLGTGVLRLGDHATPSSRE	< -0.25
YGLHGFVGL	< -0.25
YGLVLVAPTV	< -0.25
YGQEDIPTPYRISEVGAFYA	< -0.25
YGRQPRLFHLEHFQSKCSLQ	-0.248
YGTGGNHGLGVTGAGPVS	< -0.25
YGVARVPLSRD	< -0.25
YGVEA	< -0.25
YGVGPHTILEYRGTGFGDRR	< -0.25
YGVRDHVVSHV	< -0.25
YGVYSGSRSSNR	< -0.25
YHFDRAAARRQDKAHKN	4.7
YHGGLL	< -0.25
YHGHGIDNGLCGSSEVSVLR	-0.25
YHHPCSPVHDATRGDVSPPY	< -0.25
YHISKSEPRGIQR	< -0.25
YHLHYSLRA	< -0.25
YHPSGSLFGSIGKDTVPTET	< -0.25
YHSAYSKNIRPP	< -0.25
YHTPG	< -0.25

Some of the entries so far, with bars between the fields.
Substance | growth estimate
WLH | < -0.25
WLRCLGHRQLDDRGNHLYPS | -0.245

From the supplement of paper PMC5949888
